Results are given in words; binding and its absence hold for the method and conditions named. Binding seen in cells or lysates may run through a third protein. Some binding calls cover weakened binding; strength is not graded here. Where a sequence is shown, tags or fusion partners need not be part of it.
T1: C-terminal His-tagged PBP1a (pBAD-based plasmid) (Escherichia coli) (UniProt P02918)
T1 sequence: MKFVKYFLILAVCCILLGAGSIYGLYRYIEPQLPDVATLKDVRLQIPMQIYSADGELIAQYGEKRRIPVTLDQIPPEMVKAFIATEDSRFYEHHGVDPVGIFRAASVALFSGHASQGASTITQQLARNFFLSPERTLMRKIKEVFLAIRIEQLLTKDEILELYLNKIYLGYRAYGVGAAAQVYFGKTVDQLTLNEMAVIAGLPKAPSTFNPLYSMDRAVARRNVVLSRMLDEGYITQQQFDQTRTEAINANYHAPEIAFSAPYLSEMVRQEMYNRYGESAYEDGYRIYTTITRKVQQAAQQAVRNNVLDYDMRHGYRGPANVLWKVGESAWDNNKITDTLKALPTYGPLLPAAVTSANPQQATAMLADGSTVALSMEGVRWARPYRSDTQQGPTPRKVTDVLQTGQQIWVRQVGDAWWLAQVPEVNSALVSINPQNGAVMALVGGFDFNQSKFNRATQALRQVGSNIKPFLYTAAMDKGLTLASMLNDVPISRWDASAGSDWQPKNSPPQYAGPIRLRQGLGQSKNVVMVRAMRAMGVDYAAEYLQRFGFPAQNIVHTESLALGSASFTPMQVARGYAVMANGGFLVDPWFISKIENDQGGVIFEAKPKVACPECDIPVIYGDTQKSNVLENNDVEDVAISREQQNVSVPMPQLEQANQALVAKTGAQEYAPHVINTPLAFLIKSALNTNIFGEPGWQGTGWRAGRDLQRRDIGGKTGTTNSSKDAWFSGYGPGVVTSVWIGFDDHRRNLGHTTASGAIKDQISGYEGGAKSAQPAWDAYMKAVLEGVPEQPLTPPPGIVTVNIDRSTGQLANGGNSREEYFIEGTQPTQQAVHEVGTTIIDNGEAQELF

T2: C-terminal His-tagged PBP1b (pBAD-based plasmid) (Escherichia coli) (UniProt P02919)
T2 sequence: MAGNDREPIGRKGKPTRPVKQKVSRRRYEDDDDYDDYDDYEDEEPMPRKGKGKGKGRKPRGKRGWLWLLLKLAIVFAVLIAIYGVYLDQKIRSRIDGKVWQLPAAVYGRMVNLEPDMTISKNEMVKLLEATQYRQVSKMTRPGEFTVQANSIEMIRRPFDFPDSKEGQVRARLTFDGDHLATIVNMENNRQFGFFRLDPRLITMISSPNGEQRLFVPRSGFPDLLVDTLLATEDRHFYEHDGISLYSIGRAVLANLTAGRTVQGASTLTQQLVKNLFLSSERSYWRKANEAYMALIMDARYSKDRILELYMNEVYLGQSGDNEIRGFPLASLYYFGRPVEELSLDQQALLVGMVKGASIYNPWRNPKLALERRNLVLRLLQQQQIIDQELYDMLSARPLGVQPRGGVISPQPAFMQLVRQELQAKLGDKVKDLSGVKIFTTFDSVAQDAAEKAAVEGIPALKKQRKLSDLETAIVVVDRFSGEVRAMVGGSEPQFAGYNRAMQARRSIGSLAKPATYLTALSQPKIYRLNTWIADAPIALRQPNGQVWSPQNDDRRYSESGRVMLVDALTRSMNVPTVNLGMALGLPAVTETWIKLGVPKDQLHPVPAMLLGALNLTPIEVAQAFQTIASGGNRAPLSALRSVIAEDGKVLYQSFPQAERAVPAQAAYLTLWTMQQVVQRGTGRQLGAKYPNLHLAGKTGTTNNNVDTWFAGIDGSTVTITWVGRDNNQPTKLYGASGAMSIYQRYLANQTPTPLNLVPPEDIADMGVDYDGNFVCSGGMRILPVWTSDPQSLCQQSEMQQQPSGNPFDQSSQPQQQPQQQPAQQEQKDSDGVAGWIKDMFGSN

T3: C-terminal His-tagged PBP2 (pBAD-based plasmid) (Escherichia coli) (UniProt P0AD65)
T3 sequence: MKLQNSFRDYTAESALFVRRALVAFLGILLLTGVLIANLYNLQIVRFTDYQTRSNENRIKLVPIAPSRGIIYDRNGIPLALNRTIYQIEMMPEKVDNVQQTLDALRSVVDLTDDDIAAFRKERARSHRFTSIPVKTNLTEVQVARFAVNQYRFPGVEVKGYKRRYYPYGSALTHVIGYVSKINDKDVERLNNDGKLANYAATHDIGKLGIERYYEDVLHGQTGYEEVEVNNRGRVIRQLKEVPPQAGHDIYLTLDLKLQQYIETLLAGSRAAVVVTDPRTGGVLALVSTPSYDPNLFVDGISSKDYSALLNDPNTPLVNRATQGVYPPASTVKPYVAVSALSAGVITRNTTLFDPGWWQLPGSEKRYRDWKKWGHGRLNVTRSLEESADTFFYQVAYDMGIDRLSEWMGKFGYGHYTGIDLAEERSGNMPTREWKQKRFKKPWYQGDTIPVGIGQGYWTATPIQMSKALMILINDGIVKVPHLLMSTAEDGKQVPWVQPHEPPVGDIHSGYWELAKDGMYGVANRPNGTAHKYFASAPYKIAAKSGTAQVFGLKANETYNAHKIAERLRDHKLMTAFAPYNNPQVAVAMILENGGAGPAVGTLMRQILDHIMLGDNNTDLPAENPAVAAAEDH

T4: C-terminal His-tagged PBP3 (pBAD-based plasmid) (Escherichia coli) (UniProt P0AD68)
T4 sequence: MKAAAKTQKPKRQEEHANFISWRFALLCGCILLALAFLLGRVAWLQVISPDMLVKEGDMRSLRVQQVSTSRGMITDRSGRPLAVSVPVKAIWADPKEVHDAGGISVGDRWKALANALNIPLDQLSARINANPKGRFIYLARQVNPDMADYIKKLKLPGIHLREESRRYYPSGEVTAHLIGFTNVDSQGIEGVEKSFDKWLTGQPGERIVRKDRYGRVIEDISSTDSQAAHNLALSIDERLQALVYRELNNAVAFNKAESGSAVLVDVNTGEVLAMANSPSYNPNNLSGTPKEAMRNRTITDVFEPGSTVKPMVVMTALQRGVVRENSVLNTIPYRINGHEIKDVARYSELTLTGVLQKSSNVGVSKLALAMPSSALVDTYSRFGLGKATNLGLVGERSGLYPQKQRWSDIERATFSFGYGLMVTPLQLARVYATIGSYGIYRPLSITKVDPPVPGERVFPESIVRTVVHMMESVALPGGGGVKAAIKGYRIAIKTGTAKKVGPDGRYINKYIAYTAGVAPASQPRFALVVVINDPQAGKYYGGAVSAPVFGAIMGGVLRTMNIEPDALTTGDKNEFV

B1: DacC-Flag (chromosomal DacC with C-terminal 3xFlag, strain MG1655 DacC-Flag) (enzyme, UniProt P08506 28-400)
chain: AEQTVEAPSVDARAWILMDYASGKVLAEGNADEKLDPASLTKIMTSYVVGQALKADKIKLTDMVTVGKDAWATGNPALRGSSVMFLKPGDQVSVADLNKGVIIQSGNDACIALADYVAGSQESFIGLMNGYAKKLGLTNTTFQTVHGLDAPGQFSTARDMALLGKALIHDVPEEYAIHKEKEFTFNKIRQPNRNRLLWSSNLNVDGMKTGTTAGAGYNLVASATQGDMRLISVVLGAKTDRIRFNESEKLLTWGFRFFETVTPIKPDATFVTQRVWFGDKSEVNLGAGEAGSVTIPRGQLKNLKASYTLTEPQLTAPLKKGQVVGTIDFQLNGKSIEQRPLIVMENVEEGGFFGRVWDFVMMKFHQWFGSWFS
B2: DacC(ΔC)-Flag (chromosomal DacC without the C-terminal membrane-anchoring domain, strain MG1655 DacC(ΔC)-Flag) (domain or fragment, UniProt P08506 28-378)
chain: AEQTVEAPSVDARAWILMDYASGKVLAEGNADEKLDPASLTKIMTSYVVGQALKADKIKLTDMVTVGKDAWATGNPALRGSSVMFLKPGDQVSVADLNKGVIIQSGNDACIALADYVAGSQESFIGLMNGYAKKLGLTNTTFQTVHGLDAPGQFSTARDMALLGKALIHDVPEEYAIHKEKEFTFNKIRQPNRNRLLWSSNLNVDGMKTGTTAGAGYNLVASATQGDMRLISVVLGAKTDRIRFNESEKLLTWGFRFFETVTPIKPDATFVTQRVWFGDKSEVNLGAGEAGSVTIPRGQLKNLKASYTLTEPQLTAPLKKGQVVGTIDFQLNGKSIEQRPLIVMENVEEGG
B3: DacA-Flag (chromosomal DacA with C-terminal 3xFlag, strain MG1655 DacA-Flag) (enzyme, UniProt P0AEB2 30-403)
chain: DDLNIKTMIPGVPQIDAESYILIDYNSGKVLAEQNADVRRDPASLTKMMTSYVIGQAMKAGKFKETDLVTIGNDAWATGNPVFKGSSLMFLKPGMQVPVSQLIRGINLQSGNDACVAMADFAAGSQDAFVGLMNSYVNALGLKNTHFQTVHGLDADGQYSSARDMALIGQALIRDVPNEYSIYKEKEFTFNGIRQLNRNGLLWDNSLNVDGIKTGHTDKAGYNLVASATEGQMRLISAVMGGRTFKGREAESKKLLTWGFRFFETVNPLKVGKEFASEPVWFGDSDRASLGVDKDVYLTIPRGRMKDLKASYVLNSSELHAPLQKNQVVGTINFQLDGKTIEQRPLVVLQEIPEGNFFGKIIDYIKLMFHHWFG

Assays:
Assay in all cases: pull-down
[1] = molecular target: T1, C-terminal His-tagged PBP1a (pBAD-based plasmid) (Escherichia coli)
[2] = molecular target: T2, C-terminal His-tagged PBP1b (pBAD-based plasmid) (Escherichia coli)
[3] = molecular target: T3, C-terminal His-tagged PBP2 (pBAD-based plasmid) (Escherichia coli)
[4] = molecular target: T4, C-terminal His-tagged PBP3 (pBAD-based plasmid) (Escherichia coli)

Binder | binding [1] | binding [2] | binding [3] | binding [4]
B1 | binds | binds | binds | binds
B2 | no binding | no binding | binds | no binding
B3 | binds | binds | binds | binds

From paper doi:10.1101/2022.09.06.506770
